From publication PMC7819943, “Rice protein-binding microarrays: a tool to detect cis-acting elements near promoter regions in rice”
Some of the results follow.

By UniProt entry, the sequences of proteins in these tests, tags left out.
UniProt Q0JBA9, entry or part of it: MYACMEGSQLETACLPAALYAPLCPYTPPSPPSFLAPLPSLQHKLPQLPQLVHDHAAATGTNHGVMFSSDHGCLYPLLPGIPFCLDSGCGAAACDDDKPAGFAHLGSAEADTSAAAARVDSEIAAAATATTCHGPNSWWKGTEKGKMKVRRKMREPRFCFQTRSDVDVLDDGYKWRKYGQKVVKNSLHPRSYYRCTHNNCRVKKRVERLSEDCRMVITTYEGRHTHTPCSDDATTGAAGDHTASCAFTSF

Target: OsWRKY34 (Oryza sativa, UniProt Q0JBA9 1-250)
Experiment: protein-binding microarray (RPBM); PBS, 2% BSA, 51.3 ng/ul salmon testes DNA, 50 uM zinc acetate, 200 nM TF, 25 C, 1 h; high values mean tight binding
Conditions: protein: recombinant; tags: N-terminal polyhistidine and DsRed monomer fusion (pET32a); label: CyDye5-dUTP incorporated in the synthesized complementary strand; 3' TTTTT single-stranded linker to array surface; dsDNA, one strand shown
Summary of the method: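 Polyhistidine-tagged DsRed fusions of transcription factors, joined at the N-terminus, were expressed in E. coli BL21-CodonPlus and isolated on Ni–NTA. They were incubated at 200 nM for 1 h at 25 °C on a custom Agilent array, double-stranded and BSA-blocked, in PBS with 2% BSA, salmon testes DNA and 50 µM zinc acetate. The binding signal is per-feature fluorescence intensity (arbitrary units) read on an Axon 4000B scanner after washing.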

In order of falling binding signal:
1. TATTTTAATGTATGACGCCGTTGACTTTTTAATCAATGTTCGGAGTCACCTAGTGCAG  29100 fluorescence intensity (a.u.)
2. CTTGCCATGGTGTTGATTTGGGGCGGGAAGAAGCATCGGGCGGAGTCACCTAGTGCAG  16800 fluorescence intensity (a.u.)
3. TGTGTAGGGTGGGTTCTATTTGAGGGATTAGAGTATGTTCCGGAGTCACCTAGTGCAG  15500 fluorescence intensity (a.u.)
4. GGTGGTGGTGGTGGGGCGGGAGAAGTACTCCGAGTAGTCGCGGAGTCACCTAGTGCAG  15500 fluorescence intensity (a.u.)
5. ACGTGGCACTCGACTGGCGCTTTTTTCGGTGTTTTTCTTTCGGAGTCACCTAGTGCAG  13800 fluorescence intensity (a.u.)
6. GTTCTAACGATCGCTCACCTCCTCGTTTTATAGCGCCTTCCGGAGTCACCTAGTGCAG  13200 fluorescence intensity (a.u.)
7. TTAAGACGGGGAGAGAGAAGGGGAGGGAGGGGCTCGCTGTCGGAGTCACCTAGTGCAG  13200 fluorescence intensity (a.u.)
8. TATTGTTGTTCCAACCAACTTTTGTATCATTCTTATTCTTCGGAGTCACCTAGTGCAG  12900 fluorescence intensity (a.u.)
9. ACACTGCGCCTCGGGGAGTGGGTATAAAGCGGGGAGGGATCGGAGTCACCTAGTGCAG  12800 fluorescence intensity (a.u.)
10. GTGTGGATTTTTTTTCCCCGGTGGTTTGTGGGTGTTTGGACGGAGTCACCTAGTGCAG  12600 fluorescence intensity (a.u.)
11. ATTGACTCCCGCTGATTTTTCTTCTGGGTTCGCCATTGCCCGGAGTCACCTAGTGCAG  12300 fluorescence intensity (a.u.)
12. GCGGATTGGTCGCCCGCCACTGTCTCCCGCGCCTTTCTTGCGGAGTCACCTAGTGCAG  12200 fluorescence intensity (a.u.)
13. AGAGCCCAACATCTTTTTTTTTGTTTTTTTGAACTTTTTACGGAGTCACCTAGTGCAG  11900 fluorescence intensity (a.u.)
14. GGGTTGATTTTGCTTCCTGCATCCCAGCGACATCGCCCAACGGAGTCACCTAGTGCAG  11500 fluorescence intensity (a.u.)
15. AGCCTTAATTTGCACGCTACAGTCTATCAACCACTTTAATCGGAGTCACCTAGTGCAG  11400 fluorescence intensity (a.u.)
16. GGTAGCCATCTTAACTTTTAAAATCTCTCAACATTTTTTACGGAGTCACCTAGTGCAG  11200 fluorescence intensity (a.u.)
17. ACCCTCTTGTGCCTCTCATTGTTTGGTCATTGACTTCAGCCGGAGTCACCTAGTGCAG  11200 fluorescence intensity (a.u.)
18. ACGGAGCCACCTATCCGCGCCGTCAGATCTCTCCATTTCTCGGAGTCACCTAGTGCAG  11200 fluorescence intensity (a.u.)
19. ACCTTTTTTGCACTTTTCTTCGGTTGCCATCTTCGTAAATCGGAGTCACCTAGTGCAG  11100 fluorescence intensity (a.u.)
20. GTCTCATTCTTCTTATTTCCATTTTTTTTTTCTCTCAAAACGGAGTCACCTAGTGCAG  11100 fluorescence intensity (a.u.)
21. CGACACATTCTTCGAGATACTACTTTGACCAACAATATCTCGGAGTCACCTAGTGCAG  10900 fluorescence intensity (a.u.)
22. TGCAGCCTTCTTGTCCTCCTGTTCGTCAACAGCATCAGCACGGAGTCACCTAGTGCAG  10900 fluorescence intensity (a.u.)
23. TCTTTGGTACATTTTCAGCACTTTCCTATGCTTCATTATACGGAGTCACCTAGTGCAG  10700 fluorescence intensity (a.u.)
24. ACCTGACTAGCACCCTCATTTAGGTTTTGAATAGTTTGTCCGGAGTCACCTAGTGCAG  10600 fluorescence intensity (a.u.)
25. ACACATACACACACATATCTCATCTTGTTGTTTCTGAGCTCGGAGTCACCTAGTGCAG  10600 fluorescence intensity (a.u.)
26. ACACAGCTCCAACCCATGCACATCCATCCAACTTAATTTGCGGAGTCACCTAGTGCAG  10500 fluorescence intensity (a.u.)
27. GGCCACGCTCCGCCTCGCGGTCCTACTGCGCCTTCGCCTCCGGAGTCACCTAGTGCAG  10500 fluorescence intensity (a.u.)
28. CACTACTCCTACGCCTTACAGATCTGATCCTGCTGGATTGCGGAGTCACCTAGTGCAG  10200 fluorescence intensity (a.u.)
29. CTCCTCCCCTGTTTCCTCTCGTTCTTCTCCAACTCACCCTCGGAGTCACCTAGTGCAG  10200 fluorescence intensity (a.u.)
30. AAGTTTCACATGTTCAAACACCTCTTTTCTCTCTCTTCTTCGGAGTCACCTAGTGCAG  10200 fluorescence intensity (a.u.)
31. CCAGATGTGCACCCCGTATCCCGCGGCGCTACCGCTACCACGGAGTCACCTAGTGCAG  10100 fluorescence intensity (a.u.)
32. GTTCATCGCATCCGCCCCAGCCCCGCGTCCGTGCCGTGCACGGAGTCACCTAGTGCAG  10100 fluorescence intensity (a.u.)
33. AATAAATGTGCGTTTTATTTTTTTTCTATTGGTGTTAGTACGGAGTCACCTAGTGCAG  10000 fluorescence intensity (a.u.)
34. TTGACTATAACTTGTAGTGTACGCGCCGGCTCATGCATCTCGGAGTCACCTAGTGCAG  10000 fluorescence intensity (a.u.)
35. TTTTCTTTATTCAATCTGTCTTATCCTACTTATATGTATACGGAGTCACCTAGTGCAG  9920 fluorescence intensity (a.u.)
36. CTTCACTTCACTTCACGCACGCTCAGATCCAGCCTCGCTTCGGAGTCACCTAGTGCAG  9900 fluorescence intensity (a.u.)
37. TGATGGATATGGTACTATACTACGGAGTTTTTTCTTCACACGGAGTCACCTAGTGCAG  9760 fluorescence intensity (a.u.)
38. GTTAAAATTATCTTCACTCGTTGCAACACGCATGTATTTTCGGAGTCACCTAGTGCAG  9710 fluorescence intensity (a.u.)
39. TATGTTTATTTAATTGTTCCATAGAGTTGACTGAAATTGCCGGAGTCACCTAGTGCAG  9680 fluorescence intensity (a.u.)
40. GAGGAGGCGGTGGGAGGGATCGATGGCGTCGCGCGTGCTCCGGAGTCACCTAGTGCAG  9630 fluorescence intensity (a.u.)
41. GGGTTATGCGAAGGGTCCTGTCACGGCCTCTATCCGGTATCGGAGTCACCTAGTGCAG  9600 fluorescence intensity (a.u.)
42. CAAAATCCCATTGCTCACCCGCGTTATATAACCGCGGCCGCGGAGTCACCTAGTGCAG  9590 fluorescence intensity (a.u.)
43. TCGAACGTGGGGATGGCTAATTGCAGAGGTTGATCTAACTCGGAGTCACCTAGTGCAG  9500 fluorescence intensity (a.u.)
44. TCCCTCGGTCCCATCGTATATATATATACCGTATGTCCCGCGGAGTCACCTAGTGCAG  9470 fluorescence intensity (a.u.)
45. TATACATATATCCTCCTTCTGTCCAGCTAACGGTTTATATCGGAGTCACCTAGTGCAG  9460 fluorescence intensity (a.u.)
46. TATGCCTGACCCGTAACCCTGACACACATAAGATACATACCGGAGTCACCTAGTGCAG  9450 fluorescence intensity (a.u.)
47. TGGTAGGGTTTGTGCACTGTTGAGATGAAAAGGAAAGCGTCGGAGTCACCTAGTGCAG  9330 fluorescence intensity (a.u.)
48. TTTTTTTCTCGGGATACATGACTCACTTGCGAAAACATCCCGGAGTCACCTAGTGCAG  9220 fluorescence intensity (a.u.)
49. GAGTTGGTTATAAGGTGAGTATCTCGCTAAGTCAGTTGTTCGGAGTCACCTAGTGCAG  9210 fluorescence intensity (a.u.)
50. AACATTCCGTCCTGAACTTTTTTCATTTGGCCACTGTTACCGGAGTCACCTAGTGCAG  9020 fluorescence intensity (a.u.)
51. GAGTGGAGTACTGTTTAATTTGGAGCTTAGCCATCCACTACGGAGTCACCTAGTGCAG  8760 fluorescence intensity (a.u.)
52. TCCATTCCATATTATAAGTTGTTTTGGTCTTTCTATCCCTCGGAGTCACCTAGTGCAG  8760 fluorescence intensity (a.u.)
53. CATCCGCGAGCACTTTGACTAATCAGAATATCAGTTCCCGCGGAGTCACCTAGTGCAG  8760 fluorescence intensity (a.u.)
54. TCCGTGACTATGCTTCTTCTTTTCTTTAATTTTCACCAGACGGAGTCACCTAGTGCAG  8750 fluorescence intensity (a.u.)
55. CCAACTGCTCTATTCCACTACAATCTCAGGCTACTGCTAACGGAGTCACCTAGTGCAG  8660 fluorescence intensity (a.u.)
56. ATTCCTATCAAAATCCTACGATTTTCCTATTCGTACGTTTCGGAGTCACCTAGTGCAG  8640 fluorescence intensity (a.u.)
57. CCTTCGTGGTCGTGGCTTACCAGCACCACCCACCTACCGCCGGAGTCACCTAGTGCAG  8630 fluorescence intensity (a.u.)
58. CTACCTCAGTCACCACTCACCACACCAGGTGCGAGCTATACGGAGTCACCTAGTGCAG  8600 fluorescence intensity (a.u.)
59. ATGTTTCAAATTTGCACAGAGCATGCATTTTCTTTGGTTACGGAGTCACCTAGTGCAG  8590 fluorescence intensity (a.u.)
60. AATTGCATTCTAAATACTATGGCCCGTTTCGTGTCTTGGACGGAGTCACCTAGTGCAG  8590 fluorescence intensity (a.u.)
61. GCGCTGTGGTCCCGGCGCCGGCAGTGGTTGCTTCTGCGCGCGGAGTCACCTAGTGCAG  8560 fluorescence intensity (a.u.)
62. CATTTTTGCAGGCATATTTTTGGCTTATGCTCCTTGTTCTCGGAGTCACCTAGTGCAG  8540 fluorescence intensity (a.u.)
63. GCCGCCACCACCGCCTCTTTGCCGGAGGGCTCGAGATCGCCGGAGTCACCTAGTGCAG  8480 fluorescence intensity (a.u.)
64. TCCACCACCTCAGTCCGCCTCTCCAGTGCCTCGATTGACTCGGAGTCACCTAGTGCAG  8470 fluorescence intensity (a.u.)
65. AAACGCTGCTTCGTTCCCAACCCTCGCTTCCGATCAGAGCCGGAGTCACCTAGTGCAG  8420 fluorescence intensity (a.u.)
66. GGTCCTTTTAGGATAGGATAACGCATTTCTCGTCTTCACACGGAGTCACCTAGTGCAG  8390 fluorescence intensity (a.u.)
67. AAAATTTTCTTGTATGCATGTGGGATTATTAGAGTTTTGCCGGAGTCACCTAGTGCAG  8360 fluorescence intensity (a.u.)
68. TGCCCACTCCGCATATTCTGCGCGATATCCTCGTCCCGTACGGAGTCACCTAGTGCAG  8330 fluorescence intensity (a.u.)
69. GAACCCTGAGTACGTTTTTTTCCTCTTTTTTCTAATTATACGGAGTCACCTAGTGCAG  8310 fluorescence intensity (a.u.)
70. ATGCACTCATTGGTTGGTATAAATACACCACATTGTTCACCGGAGTCACCTAGTGCAG  8300 fluorescence intensity (a.u.)
71. GAACAACAATACAATACATACACGCATACATAGGTAGATCCGGAGTCACCTAGTGCAG  8280 fluorescence intensity (a.u.)
72. AGAATCTGGTACCACCCTCATGTTTGATAATTGACTTTTCCGGAGTCACCTAGTGCAG  8250 fluorescence intensity (a.u.)
73. AGTTGTCGTTAATCGGAGTGTGATAATTAATTATTTATATCGGAGTCACCTAGTGCAG  8240 fluorescence intensity (a.u.)
74. CCACCGCTCTCTTCCGCCGCTGCGGCTCACGGCTACGCAGCGGAGTCACCTAGTGCAG  8220 fluorescence intensity (a.u.)
75. TTCGAAAATACCTTCCAACATCCGGTCAAACATCCGACGTCGGAGTCACCTAGTGCAG  8210 fluorescence intensity (a.u.)
76. AAATCATTTTTCTATTTTCGTTCCTATTTATTTAACTCAACGGAGTCACCTAGTGCAG  8160 fluorescence intensity (a.u.)
77. CTACACACACACACTCTTCTCCAGCTTCTTCCCGCCACGACGGAGTCACCTAGTGCAG  8160 fluorescence intensity (a.u.)
78. TGCCTCGTTTTTCTCTATAGACTATCTCCTGGTTAGTAGACGGAGTCACCTAGTGCAG  8150 fluorescence intensity (a.u.)
79. CTTCGTTGTTAACTTTCTCAATATTCGTGCCGTGTATTATCGGAGTCACCTAGTGCAG  8120 fluorescence intensity (a.u.)
80. ATCTATCATTCTGAAATTATTCATCATCGATCAAGGTGCTCGGAGTCACCTAGTGCAG  8110 fluorescence intensity (a.u.)
81. AAAGAACTTACTTCTATTCTATTTGCTAAGTTTATTTTTCCGGAGTCACCTAGTGCAG  8090 fluorescence intensity (a.u.)
82. AAGTATACTACATGGTACCACATACCGACATACGTATACACGGAGTCACCTAGTGCAG  8050 fluorescence intensity (a.u.)
83. TCCTCCTCGTTTTCCGCGCGCACGCTTTTCAAACTGCTAACGGAGTCACCTAGTGCAG  8050 fluorescence intensity (a.u.)
84. TGGAGAAGGTGGTTATGGTGTGGTTTTCAAAGGAAAGCTACGGAGTCACCTAGTGCAG  8030 fluorescence intensity (a.u.)
